This note sets out measurements from PMC12040169 (PLOS Biology, 2025).

The structures appear in SMILES notation. Some of the results follow.

The subject of this assay is T1, CTL2-GFP (C. trachomatis L2/434/Bu, GFP-expressing).
T1 construct: L2/434/Bu, GFP-expressing
Details: species or system HeLa; Intracellular C. trachomatis growth in HeLa cells, bulk GFP fluorescence relative to DMSO. As to conditions: bulk GFP, single well; 28.5 h, 10 µM; inhibitor.
Regarding `COc1ccc(C2CC(=O)C(=CNCCCN3CCOCC3)C(=O)C2)cc1` (stereo not drawn) [CBK263647], the “% of control remaining” value stood at 100%.
To `O=C(C[n+]1cccc(C(=O)N/N=C/c2ccc(Br)cc2)c1)c1ccccc1` [CBK262063B] belongs 100%; to `CC(=O)c1c(C)c2c(=O)n3c(nc2[nH]c1=O)CCC3` [CBK287872], 121.907%; to `COc1ccccc1N1CCN(CCC(=O)Nc2ccccc2F)CC1` [CBK264313], 126.659%.
To `O=C1CC2(CCC3C(C(=O)N4CCCCC4)C32)Oc2ccccc21` (stereo not drawn) [CBK284947] belongs 97.3679%.
Then `CN1CCC(OCCCn2ccnc2-c2ccccc2C(=O)O)CC1` [CBK307188], with 149.818%; and `CC(=O)Nc1cccc(/C(C)=N/NC(=O)c2ccc(CN3CCOCC3)cc2)c1` [CBK262746], with 113.383%.
`COCC1(C(=O)N2CCN(c3ccccc3C#N)CC2)CCC1` [CBK304361]: the “% of control remaining” value came out at 123.498%.
Consider `Nc1ncc(-c2cc(C(F)(F)F)cc(C(F)(F)F)c2)nc1Nc1ccc2[nH]ccc2c1` [CBK063651], for which the “% of control remaining” value was found to be 165.856%.
Then `O=[N+]([O-])c1ccc(Cl)cc1CN1CCN(C/C=C/c2ccccc2)CC1` [CBK261568], with 111.843%; and `CNCCc1n[nH]c(N)n1` [CBK020959], with 111.335%.
In the case of `COc1ccc(Nc2nc(-c3cccc(-c4ccccc4)c3)cnc2N)cc1` [CBK063593], the “% of control remaining” value is on record as 146.834%.
`Cn1c(=O)[nH]c(=O)c2c1nc(N/N=C/c1cc(Br)ccc1O)n2CCO` [CBK139415]: the “% of control remaining” value was determined as 106.094%.
Consider `COc1ccccc1NC(=O)c1ccc(OCC(=O)O)cc1` [CBK265849], for which the “% of control remaining” value stood at 123.715%.
With `CN(C)CCNc1cc(-c2ccncc2)nc2ccccc12` [CBK066898B], the “% of control remaining” value was determined as 110.761%.
Then `Cc1onc(-c2ccccc2)c1CNC(=O)CC1CC1` [CBK144072], with 110.391%; and `c1ccc2c(OCc3nnn[nH]3)cccc2c1` [CBK269495], with 122.462%.
To `COc1ccccc1-c1ccccc1CC1(C(=O)NCc2ccc(F)cc2)CCOCC1` [CBK286425] belongs 96.1373%.
Consider `CC(NC(=O)N1CCCN(Cc2cccs2)CC1)c1nncn1C` (stereo not drawn) [CBK305322], for which the “% of control remaining” value is recorded as 110.709%.
To `O=C(O)CCC(=O)Nc1cccc(NC(=O)c2ccc(Br)cc2)c1` [CBK300180] belongs 155.582%.
To `O=C(CC(C(=O)O)P(=O)(c1ccccc1)c1ccccc1)c1ccccc1` (stereo not drawn) [CBK264971] belongs 119.899%; to `Cc1nc(CC(=O)NC(Cc2ccsc2)c2nccs2)cs1` (stereo not drawn) [CBK282823], 128.155%; to `Cc1ccc(-c2noc(CN3CCN(Cc4ccccc4)CC3)n2)cc1` [CBK267288], 148.864%.
As to `COC(=O)Cn1nnc(-c2ccccc2)n1` [CBK069215], the “% of control remaining” value was 128.607%.
Then `CC(=O)Nc1ccc(NC(=O)CCC(=O)O)cc1C` [CBK265395], with 104.417%.
Then `O=C(C1CC1)N1CCC(C(=O)N(Cc2ccco2)c2ccccc2)CC1` [CBK298269], with 146.904%.
To `CC12CN(S(=O)(=O)c3ccccc3)CC(c3ccccc3)(CN(S(=O)(=O)c3ccccc3)C1)C2=O` [CBK268101] belongs 114.749%.
For the molecule `CC1CN(C)c2ccccc2CN1C(=O)Cc1cn2ccsc2n1` (stereo not drawn) [CBK306355], the “% of control remaining” value worked out at 153.402%.
Then `CCOc1cccc(N2C(=O)CC(N3CCC(C(N)=O)(N4CCCCC4)CC3)C2=O)c1` (stereo not drawn) [CBK263562], with 108.987%; and `COc1cc(C(=O)N2CCC3(CC2)CC(=O)c2cc(NC(C)=O)ccc2O3)nc2c(OC)cccc12` [CBK170664], with 84.7397%; and `Cc1nonc1OCCN1CCN(c2cc3c(cc2[N+](=O)[O-])n(C)c(=O)n3C)CC1` [CBK267676], with 123.954%.
Turning to `CCOC(=O)c1cccc(NC(=O)CSc2nc3cccnc3[nH]2)c1` [CBK269354], the “% of control remaining” value is 98.2348%.
Take `Cc1cccc(-c2cn3ccnc3c(N3CCN(c4ccccn4)CC3)n2)c1` [CBK066478]: the “% of control remaining” value was 157.16%.
To `CSc1nnc(-c2cccc(C)c2)n1CC1CCCCC1` [CBK085418] belongs 115.96%; to `O=C(O)c1ccc(CSc2nnc(-c3ccccc3)n2Cc2ccccc2)cc1` [CBK265013], 102.24%; to `CCCC12CN3CC(CCC)(CN(C1)C3c1ccc(O)c(OC)c1)C2=O` (stereo not drawn) [CBK265531], 100%.
To `O=C(Nc1cccc2[nH]ccc12)c1ccc2c(c1)OCCO2` [CBK159657] belongs 121.141%; to `CC(=O)NCc1cccc(-c2cc(OCC3COc4ccccc4O3)cnc2C)c1` (stereo not drawn) [CBK161723A], 90.445%.
To `Cc1ccccc1C(=O)Nc1nc2ccc(S(C)(=O)=O)cc2s1` [CBK287337] belongs 123.301%.
Consider `CCCN1C[C@H](NC(=O)CC)[C@@H](c2ccc(OC)cc2)C1` [CBK282134], for which the “% of control remaining” value was 153.152%.
Then `CN(C)S(=O)(=O)c1ccc(Cl)c(C(=O)Nc2cccc([N+](=O)[O-])c2)c1` [CBK265721], with 204.948%; and `CCCc1ccc(C(=O)NCC(C)n2cncn2)o1` (stereo not drawn) [CBK282883], with 122.866%; and `CSCCOc1cncc(N2CCCC2)n1` [CBK115761], with 100%.
Then `CCCCC(c1nnn[nH]1)n1nnc2ccccc21` (stereo not drawn) [CBK023526], with 103.28%.
Then `Cn1cc(-c2ccc(C3CCCCN3Cc3ccnc4ccccc34)cn2)cn1` (stereo not drawn) [CBK285672], with 124.39%; and `CCc1nc(CN2CCN(c3ccc4nc(C)nn4n3)CC2)cs1` [CBK306285], with 180.042%.
Consider `CC(C(=O)N1CCC(c2ccncc2)CC1)c1ccccc1` (stereo not drawn) [CBK285484], for which the “% of control remaining” value is 141.795%.
To `COCC(=O)N1CCC(c2onc3c2CC(C)CC3)CC1` (stereo not drawn) [CBK284599] belongs 143.536%; to `Cc1nsc(NCc2ccccc2CN2CCC(O)CC2)c1C#N` [CBK304695], 122.432%.
Then `COc1ccc(CCOc2nccnc2-c2ccc(OC(F)(F)F)cc2)cc1` [CBK106846], with 91.6353%; and `Cc1cccc(-c2nc(CN3CCOCC3)cs2)c1` [CBK270299], with 129.479%; and `C=C(C)c1cccc(C(C)(C)NC(=O)N2CCC(C(=O)NC(c3ccc(OC)nc3)c3ccccc3C)CC2)c1` (stereo not drawn) [CBK074871], with 118.318%.
Then `CN1CC(c2ccccc2)CC2(CCN(CCCn3cnnn3)CC2)C1` (stereo not drawn) [CBK306522], with 112.594%; and `CCn1nnc2c(=O)n(CC(=O)Nc3ccccc3)cnc21` [CBK287828], with 97.0074%.
As for `COCc1cccc(-c2nccnc2OC(c2ccccc2)c2ccccc2)c1` [CBK106960], the “% of control remaining” value was found to be 83.2579%.
Regarding `COC(C)(C)C(=O)N1CCCC(c2ccc(Cc3ccc(Cl)cc3)cn2)C1` (stereo not drawn) [CBK285846], the “% of control remaining” value came out at 115.69%.
To `COc1ccc(NC(=O)Nc2nn(Cc3c(F)cccc3Cl)cc2Cl)cc1OC` [CBK267019] belongs 134.439%; to `Nc1nc(=O)[nH]c2c1ncn2[C@H]1C[C@@H](O)[C@@H](CO)O1` [CBK201323], 147.844%.
Then `CNC(=O)Nc1cccc(S(N)(=O)=O)c1` [CBK023839], with 118.061%; and `O=C(NC1CCCCC1)c1cc(S(=O)(=O)N2CCOCC2)ccc1Cl` [CBK261662], with 100%.
Then `Cc1ccc(C(=O)Nc2ccccc2C(=O)N2CCN(Cc3ccccc3)CC2)cc1` [CBK263560], with 92.8051%; and `CC(C)(C)CCNCCN1CCOCC1` [CBK001895], with 98.9083%; and `N#CC1=C(N)Oc2[nH]nc(-c3cccs3)c2C1c1ccco1` (stereo not drawn) [CBK266088], with 155.754%.
Turning to `Cc1cc(Cl)ccc1NC(=O)COC(=O)c1ccccc1I` [CBK265638], the “% of control remaining” value amounted to 100%.
Then `CC(C)C1OC(NC2CC(C)(C)NC(C)(C)C2)=NC1=O` (stereo not drawn) [CBK070360T], with 114.332%.
Take `CN1CCC(N(C)C(=O)NCCN2CCOCC2)C1` (stereo not drawn) [CBK156002]: the “% of control remaining” value is reported as 109.999%.
Consider `Cc1ccc(Cn2nc(NC(=O)c3cc(C)on3)c3ccccc32)cc1` [CBK048215], for which the “% of control remaining” value was found to be 135.295%.
`Cc1ccccc1C(=O)Nc1cccc(NC(=S)NC(=O)c2cccs2)c1` [CBK263895]: the “% of control remaining” value is recorded as 129.949%.
To `Cc1cc(C)n(CC(=O)NCCCn2ccnc2C(C)C)c(=O)n1` [CBK307185] belongs 148.254%.
Then `Cc1ccc2c(c1)C(=O)CC1(CCC3C(C(=O)N4CCCC4)C31)O2` (stereo not drawn) [CBK284951], with 145.97%; and `Cc1nc2ccc(C(=O)N(C)CCN(C)C)cn2c1N(C)Cc1cccs1` [CBK146083], with 118.8%.
For the molecule `Cc1cn(C2CC(O)C(CO)O2)c(=O)nc1SCCC#N` (stereo not drawn) [CBK201201], the “% of control remaining” value amounted to 132.461%.
Then `CCN(Cc1ccncc1)C(=O)NCc1c(Cl)cccc1Cl` [CBK155144], with 95.8575%.
To `CC(=O)N1c2ccc(C(O)CN3CCSCC3)cc2CC1C` (stereo not drawn) [CBK283143] belongs 109.317%; to `FC(F)(F)c1ccnc(Sc2ccccn2)n1` [CBK093786], 105.322%; to `CC(C)C[C@H](NC(=O)N1CC(=O)Nc2ccccc21)C(=O)O` [CBK286589], 110.382%.
Turning to `O=C(Cc1ccsc1)N1CCn2nc(C(O)Cc3ccccc3)cc2C1` (stereo not drawn) [CBK306547], the “% of control remaining” value amounted to 160.316%.
To `O=C(COc1ccc2ccccc2c1)Oc1ccc2ccccc2c1` [CBK264885] belongs 100%.
To `Cc1nc(N)nc(N[C@@H]2CCOC[C@H]2OCCN(C)C)c1Cl` [CBK307024] belongs 76.9555%.
Regarding `O=C(O)c1ccc(Nc2ncnc3c2oc2ccccc23)cc1` [CBK269825C], the “% of control remaining” value is listed as 123.484%.
On to `CCN1CCCC1CN(Cc1cnn(C)c1)Cc1ccco1` (stereo not drawn) [CBK282470], for which the “% of control remaining” value is 112.714%.
